# Data taken from US8518715B2, “Bifunctional polyazamacrocyclic chelating agents” (Nordion (Canada) Inc., priority 2006, dated 2013).
# Some of these results come from one statement about several compounds together.
# Legend:
# Assay type in all cases: physicochemical
# [1] = Kinetics of complexation of polyazamacrocyclic ligand with 90Y3+; details: ^90Y^3+, ligand:metal 100:1, 30 minutes
# Procedure: (§1) A polyazamacrocyclic ligand ((L)-p-NO2-Bz-PCTA; (D)-p-NO2-Bz-PCTA; (L)-p-NCS-Bz-PCTA; (±)-p-NO2-Bz-DOTA, (±)-NPCTA, (±)-OXO and (L)-p-NO2-Bz-OXO) was combined with a metal ion (^90Y^3+, ^111In^3+, ^177Lu^3+) at room temperature in buffer at a molar ratio of the ligand to the metal ion of 100:1 for kinetic studies, 200:1 for stability studies or at values ranging from 2:1 to 200:1 for the molar ratio studies.
# (§2) Complexation studies involving ^90Y^3+ and ^111In^3+ were conducted with 50-100 mM sodium acetate buffer, pH 5.0-7.0, while complexation studies involving ^177Lu^3+ were performed with 50 mM-100 mM sodium acetate buffer, pH 4-5.
# (§3) 1 μL samples were taken at 10 minute intervals for kinetic studies, after 60 minutes in experiments studying the effect of the value of [ligand]/[metal ion] on the % complexation of the ligand, and at spaced intervals of 1-3 days for experiments studying the stability of complexes formed using the ligand of the present invention. […] The silica gel paper is cut in half and each half is measured in a gamma well counter. […] Each result shown in FIGS. 4-9 is the average of three separate trials.
# [2] = Kinetics of complexation of polyazamacrocyclic ligand with 111In3+; details: ^111In^3+; for maximum values of complexation: ligand:metal 100:1; for percent complexation after 10 minutes: ligand:metal 100:1, 10 minutes
# Procedure: as §1, §2, §3
# [3] = Effect of [ligand]/[90Y3+] on the percent complexation
# Procedure: as §1, §2, §3
# [4] = Effect of [ligand]/[111In3+] on the percent complexation
# Procedure: as §1, §2, §3
# [5] = Effect of [ligand]/[177Lu3+] on the percent complexation
# Procedure: as §1, §2, §3
# [6] = Kinetics of complexation of polyazamacrocyclic ligand with 177Lu3+; details: ^177Lu^3+, ligand:metal 100:1, 10 minutes
# Procedure: as §1, §2, §3
SMILES,percent complexation after 30 minutes [1],maximum values of complexation [2],percent complexation after 10 minutes [2],"percent complexation ([3]; molar ratio of ligand/^90Y^3+ of 5:1 or above, after 60 minutes)","percent complexation ([4]; molar ratio of ligand/^111In^3+ of 5:1 or above, after 60 minutes)","percent complexation ([5]; molar ratio of ligand/^177Lu^3+ of 10:1 or above, after 60 minutes)","percent complexation ([3]; molar ratio of ligand/^90Y^3+ of 2:1, after 60 minutes)","percent complexation ([5]; molar ratio of ligand/^177Lu^3+ of 100:1, after 60 minutes)",percent complexation after 10 minutes [6] [%],"percent complexation ([4]; molar ratio of ligand/^111In^3+ of 2:1, after 60 minutes)","percent complexation ([5]; molar ratio of ligand/^177Lu^3+ of 2:1 and above, after 60 minutes)"
"O=C(O)CN1CCOCCN(CC(=O)O)CCN(CC(=O)O)CC1 (racemic) [(±)-OXO, 2,2′,2″-(1-oxa-4,7,10-triazacyclododecane-4,7,10-triyl)triacetic acid, reference compound]",above 95%,greater than 95%,greater than 95%,above 95%,above 95%,greater than 95%,,,,,
"O=C(O)CN1CCN(CC(=O)O)C[C@H](Cc2ccc(N=C=S)cc2)N(CC(=O)O)Cc2cccc(n2)C1 (racemic) [(L)-p-NCS-Bz-PCTA, 2,2′,2″-((4S)-4-(4-isothiocyanatobenzyl)-3,6,9,15-tetraazabicyclo[9.3.1]pentadeca-1(15),11,13-triene-3,6,9-triyl)triacetic acid]",,greater than 95%,greater than 95%,,,,,,,,
"O=C(O)CN1CCN(CC(=O)O)CCN(CC(=O)O)C(Cc2ccc([N+](=O)[O-])cc2)CN(CC(=O)O)CC1 (racemic) [(±)-p-NO2-Bz-DOTA, 2,2′,2″,2′″-(2-(4-nitrobenzyl)-1,4,7,10-tetraazacyclododecane-1,4,7,10-tetrayl)tetraacetic acid, reference compound]",above 95%,,,,,,above 95%,greater than 95%,,,
"O=C(O)CN1CCOCCN(CC(=O)O)[C@@H](Cc2ccc([N+](=O)[O-])cc2)CN(CC(=O)O)CC1 [(L)-p-NO2-Bz-OXO, (S)-2,2′,2″-(5-(4-nitrobenzyl)-1-oxa-4,7,10-triazacyclododecane-4,7,10-triyl)triacetic acid]",above 95%,greater than 95%,greater than 95%,,,,,,> 95,above 95%,greater than 95%
